Measurements taken from patent publication US8877766B2, “Neuroprotective multifunctional antioxidants and their monofunctional analogs” (priority 2013, dated 2014).
Some results were stated once for a whole list of compounds, not compound by compound. At least one structure is not confirmed: it was looked up by name or label, or the drawing left a doubt.

Test: Metal chelation, stoichiometry by method of continuous variation (Job plots)
Format: physicochemical
Conditions: Cu^1+, Cu^2+, Fe^2+, Fe^3+ and Zn^2+

| SMILES | complex formation with redox-active metals |
| --- | --- |
| O=C1CCC(=O)N1c1ncccn1 [HK-1, 1-(2-pyrimidyl)pyrrolidine-2,5-dione] | readily form complexes |
| O=C1CCC(=O)N1c1ncc(O)cn1 [HK-2, 1-(5-hydroxy-2-pyrimidyl)pyrrolidine-2,5-dione] | readily form complexes |
| COc1cc(OC)nc(N2C(=O)CCC2=O)n1 [HK-3, 1-(4,6-dimethoxy-2-pyrimidyl)pyrrolidine-2,5-dione] | readily form complexes |
| COc1nc(N2C(=O)CCC2=O)nc(OC)c1O [HK-4, 1-(4,6-dimethox-5-hydroxy-2-pyrimidyl)pyrrolidine-2,5-dione] | readily form complexes |
| O=C1CCCC(=O)N1c1ncccn1 [HK-5, 1-(2-pyrimidyl)piperidine-2,6-dione] | readily form complexes |
| O=C1CCCC(=O)N1c1ncc(O)cn1 [HK-6, 1-(5-hydroxy-2-pyrimidyl)piperidine-2,6-dione] | readily form complexes |
| COc1cc(OC)nc(N2C(=O)CCCC2=O)n1 [HK-7, 1-(4,6-dimethoxy-2-pyrimidyl)piperidine-2,6-dione] | readily form complexes |
| COc1nc(N2C(=O)CCCC2=O)nc(OC)c1O [HK-8, 1-(4,6-dimethoxy-5-hydroxy-2-pyrimidyl)piperidine-2,6-dione] | readily form complexes |
